These are yes or no findings as the source states them, for the method shown. Some binding calls cover weakened binding; strength is not graded here. Where a sequence is shown, tags or fusion partners need not be part of it.
Molecular target: T1, human LGR6 (leucine-rich repeat containing, G protein-coupled receptor 6) with a Flag-tag at the N-terminus, wild type (human) (UniProt Q9HBX8)
T1 sequence: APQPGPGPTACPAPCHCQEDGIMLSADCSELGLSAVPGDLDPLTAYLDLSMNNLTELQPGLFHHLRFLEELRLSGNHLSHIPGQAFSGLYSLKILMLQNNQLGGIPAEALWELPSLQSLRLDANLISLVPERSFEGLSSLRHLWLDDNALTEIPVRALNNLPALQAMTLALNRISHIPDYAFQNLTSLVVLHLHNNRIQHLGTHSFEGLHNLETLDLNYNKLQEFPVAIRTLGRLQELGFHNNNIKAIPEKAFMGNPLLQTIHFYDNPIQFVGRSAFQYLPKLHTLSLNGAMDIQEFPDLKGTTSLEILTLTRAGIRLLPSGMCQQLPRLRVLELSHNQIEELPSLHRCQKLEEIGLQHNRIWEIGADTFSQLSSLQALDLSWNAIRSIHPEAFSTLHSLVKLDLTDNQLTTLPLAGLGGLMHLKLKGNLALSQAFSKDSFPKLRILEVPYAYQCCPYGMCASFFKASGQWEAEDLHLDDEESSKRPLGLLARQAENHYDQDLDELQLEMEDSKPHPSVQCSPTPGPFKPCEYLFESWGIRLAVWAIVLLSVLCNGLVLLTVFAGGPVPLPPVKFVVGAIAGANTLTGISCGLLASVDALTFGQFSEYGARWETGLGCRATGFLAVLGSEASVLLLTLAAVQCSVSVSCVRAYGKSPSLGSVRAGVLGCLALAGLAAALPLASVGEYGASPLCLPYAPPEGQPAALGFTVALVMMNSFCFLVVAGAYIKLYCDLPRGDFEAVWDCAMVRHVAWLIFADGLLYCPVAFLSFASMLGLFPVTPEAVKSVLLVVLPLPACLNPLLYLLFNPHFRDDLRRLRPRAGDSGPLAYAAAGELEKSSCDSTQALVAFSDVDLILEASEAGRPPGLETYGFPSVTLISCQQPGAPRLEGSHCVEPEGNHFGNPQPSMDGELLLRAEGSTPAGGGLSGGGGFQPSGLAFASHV
Assay: whole-cell-based competition binding assay; the pair that is displaced: mRSPO1-Fc on HEK293 cells stably expressing Flag-LGR6, without and with serial dilutions of RSPO1–4

By UniProt entry, the sequences of proteins in these tests, tags left out. Residues count along the entry.
UniProt Q9Z132, residues 21-265: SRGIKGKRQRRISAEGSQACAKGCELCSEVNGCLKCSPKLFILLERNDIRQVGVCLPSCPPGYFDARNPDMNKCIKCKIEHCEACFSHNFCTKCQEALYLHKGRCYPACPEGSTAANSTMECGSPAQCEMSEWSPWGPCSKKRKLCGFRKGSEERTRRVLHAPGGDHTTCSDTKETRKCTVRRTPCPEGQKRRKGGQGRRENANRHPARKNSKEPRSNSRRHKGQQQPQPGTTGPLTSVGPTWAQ

For “fusion protein consisting of mouse RSPO1 with mouse IgG2a-Fc at the C-terminus (from UniProt Q9Z132 21-265) (Fc fusion)”, the binding was “binds”.

From article PMC3355120, “LGR6 Is a High Affinity Receptor of R-Spondins and Potentially Functions as a Tumor Suppressor” (PLoS ONE, 2012)
